Source: patent US7696233B2, “Method for controlling particular insect pests by applying anthranilamide compounds” (E. I. du Pont de Nemours and Company, priority 2001, dated 2010)
Some results were stated once for a whole list of compounds, not compound by compound.

Columns and labels:
Type in all cases: in vivo
[1] = system: fall armyworm (Spodoptera frugiperda); assay: Test A: control of fall armyworm, foliar spray on corn; settings: sprayed at 50 ppm, visually assessed after 6 days
[2] = system: tobacco budworm (Heliothis virescens); assay: Test B: control of tobacco budworm, foliar spray on cotton; settings: sprayed at 50 ppm, visually rated after 6 days
[3] = system: beet armyworm (Spodoptera exigua); assay: Test C: control of beet armyworm, foliar spray on corn; settings: sprayed at 50 ppm, visually rated after 6 days

Measured: feeding damage (excellent levels of plant protection)

COCCNC(=O)c1cccc(C)c1NC(=O)c1cc(C(F)(F)F)nn1-c1ncccc1Cl [Compound 348]
≤ 10%: all assays above

Cc1cccc(C(=O)NCCCCl)c1NC(=O)c1cc(C(F)(F)F)nn1-c1ncccc1Cl [Compound 356]
≤ 10%: all assays above

N#CCNC(=O)c1cc(Br)cc(Br)c1NC(=O)c1cc(C(F)(F)F)nn1-c1ncccc1Cl [Compound 370]
≤ 10%: all assays above

O=C(NC1CC1)c1cc(Br)cc(Br)c1NC(=O)c1cc(C(F)(F)F)nn1-c1ncccc1Cl [Compound 371]
≤ 10%: all assays above

N#CCNC(=O)c1cc(Cl)cc(Cl)c1NC(=O)c1cc(C(F)(F)F)nn1-c1ncccc1Cl [Compound 372]
≤ 10%: all assays above

Cc1cc(C)c(NC(=O)c2cc(C(F)(F)F)nn2-c2ncccc2Cl)c(C(=O)NC(C)C)c1 [Compound 373]
≤ 10%: all assays above

Cc1cccc(C(=O)NCCF)c1NC(=O)c1cc(C(F)(F)F)nn1-c1ncccc1Cl [Compound 377]
≤ 10%: all assays above

Cc1cc(Br)cc(C(=O)NCC#N)c1NC(=O)c1cc(C(F)(F)F)nn1-c1ncccc1Cl [Compound 388]
≤ 10%: all assays above

Cc1cccc(C(N)=O)c1NC(=O)c1cc(C(F)(F)F)nn1-c1ncccc1Cl [Compound 395]
≤ 10%: all assays above

O=C(NCCF)c1cccc(Cl)c1NC(=O)c1cc(C(F)(F)F)nn1-c1ncccc1Cl [Compound 404]
≤ 10%: all assays above

Cc1cc(Br)cc(C(=O)NC(C)C)c1NC(=O)c1cc(C#N)nn1-c1ncccc1Cl [Compound 406]
≤ 10%: all assays above

Cc1cc(C(F)(F)F)cc(C(=O)NCC#N)c1NC(=O)c1cc(C(F)(F)F)nn1-c1ncccc1Cl [Compound 407]
≤ 10%: all assays above

CC(C)NC(=O)c1cc(Br)cc(Br)c1NC(=O)c1cc(C#N)nn1-c1ncccc1Cl [Compound 409]
≤ 10%: all assays above

CC(C)(C)NC(=O)c1cc(Br)cc(Br)c1NC(=O)c1cc(C#N)nn1-c1ncccc1Cl [Compound 410]
≤ 10%: all assays above

CNC(=O)c1cc(Br)cc(C)c1NC(=O)c1cc(C)nn1-c1ncccc1Cl [Compound 413]
≤ 10%: all assays above

Cc1cc(C(=O)Nc2c(C)cc(Br)cc2C(=O)NC(C)(C)C)n(-c2ncccc2Cl)n1 [Compound 414]
≤ 10%: all assays above
